Test results: patent US10221139B2, “Inhibitors of histone demethylases” (Gilead Sciences, Inc., priority 2012, dated 2019)
The match of structure and compound is tentative.

The chains behind the UniProt entries cited, without tags or fusion partners. Residues count along the entry.
UniProt Q9UGL1, 1-752 limits assumed: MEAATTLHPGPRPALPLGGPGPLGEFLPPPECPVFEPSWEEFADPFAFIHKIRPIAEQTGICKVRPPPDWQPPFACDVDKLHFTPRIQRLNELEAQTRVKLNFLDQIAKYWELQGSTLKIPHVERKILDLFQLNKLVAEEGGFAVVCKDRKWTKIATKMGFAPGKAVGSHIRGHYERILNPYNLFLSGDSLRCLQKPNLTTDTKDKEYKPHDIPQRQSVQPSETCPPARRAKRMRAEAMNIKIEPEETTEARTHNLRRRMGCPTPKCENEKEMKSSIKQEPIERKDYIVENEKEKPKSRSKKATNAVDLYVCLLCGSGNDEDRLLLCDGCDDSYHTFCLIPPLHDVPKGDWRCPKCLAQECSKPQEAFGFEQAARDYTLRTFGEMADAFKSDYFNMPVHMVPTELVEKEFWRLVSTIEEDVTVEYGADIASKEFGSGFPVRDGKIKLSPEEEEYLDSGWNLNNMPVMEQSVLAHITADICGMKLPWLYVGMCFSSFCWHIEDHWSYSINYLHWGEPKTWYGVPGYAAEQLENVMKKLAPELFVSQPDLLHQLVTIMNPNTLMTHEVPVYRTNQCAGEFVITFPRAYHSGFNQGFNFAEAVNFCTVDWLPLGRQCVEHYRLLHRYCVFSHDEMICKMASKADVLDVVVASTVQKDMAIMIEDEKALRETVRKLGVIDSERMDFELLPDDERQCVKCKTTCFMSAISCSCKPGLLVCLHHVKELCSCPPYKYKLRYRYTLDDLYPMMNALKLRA

Molecular target: PLU1 (KDM5B) (Homo sapiens, UniProt Q9UGL1)
Assay: Immunofluorescence assay in U2OS cells transfected with pCMVHA PLU1 (H3K4me2 mark)
Format: cell-based
Conditions: read-out: PLU1 (KDM5B) IC50, 20 hours

SMILES: COc1ccccc1CN1CCC(NC(=O)CNCc2cc(C(=O)O)ccn2)CC1
- IC50: 1 to 50 µM
